Source: PubChem BioAssay AID1259308 (NCATS, 2017)

- Test: 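Knock-downs that increase output of a recombinant reporter protein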 (primary screen)
- Cells: human HEK293 embryonic kidney cells stably expressing firefly luciferase (HEK-CMV-Luc2-Hygro)
- Reagent: single siRNA against human genes, 0.8 pmol siRNA per well
- Duration: 72 h
- Read-out: 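Reporter luminescence and viable-cell signal on separate replicate plates, given as percent of non-targeting control and median/MAD z-scores, plus per-cell luciferase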
- Direction: total luciferase, z-score and total luciferase, % of control: higher = more reporter protein produced
- Call rule: 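An siRNA counts as active if its total luciferase robust z-score exceeds 3; genes with two or more such siRNAs out of three were retested with fresh siRNAs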
- Calls: active = raised luciferase; inactive = no rise
Shown is a random part of about 59,000 reagents tested. About 1,510 of them (2.6%) were called active. 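Calls use total luciferase alone and ignore viability, so some active siRNAs may act by altering cell number.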 Reagents against one gene are numbered here. Not all columns of the deposit are shown.

After knock-down of ANKRD24 (GeneID 170961) #1 the results were total luciferase, z-score 0.335; total luciferase, % of control 88.6; inactive.
Against ANKRD24 (GeneID 170961) #2 the deposit lists total luciferase, z-score -2.47; total luciferase, % of control 32.7; inactive.
ANKRD24 (GeneID 170961) #3 scored total luciferase, z-score -0.279; total luciferase, % of control 76.3; inactive.
PRRG2 (GeneID 5639) #1 gave total luciferase, z-score -1.29; total luciferase, % of control 56.2; inactive.
Knock-down of PRRG2 (GeneID 5639) #2 resulted in: total luciferase, z-score 0.19; total luciferase, % of control 85.7; inactive.
For PRRG2 (GeneID 5639) #3, the entry reads total luciferase, z-score -0.149; total luciferase, % of control 78.9; inactive.
Silencing of MORN5 (GeneID 254956) #1 resulted in: total luciferase, z-score 0.126; total luciferase, % of control 84.4; inactive.
Against MORN5 (GeneID 254956) #2, the entry reads total luciferase, z-score -0.378; total luciferase, % of control 74.4; inactive.
For MORN5 (GeneID 254956) #3, the entry reads total luciferase, z-score -1.54; total luciferase, % of control 51.2; inactive.
Against H2AC15 (GeneID 8330) #1, the entry reads total luciferase, z-score -0.0662; total luciferase, % of control 80.6; inactive.
H2AC15 (GeneID 8330) #2 showed total luciferase, z-score 0.533; total luciferase, % of control 92.5; inactive.
With knock-down of H2AC15 (GeneID 8330) #3 the results were total luciferase, z-score 1.75; total luciferase, % of control 117; inactive.
